Source: the supplement of paper PMC8612539
≈ marks a conversion by molar mass, not a printed value. This continues a long series; more values of the same kind are listed elsewhere.

System: Escherichia coli
Assay: minimum inhibitory concentration (MIC)
Procedure: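 Broth microdilution MIC (Sensititre BOPO7F bovine plate, CLSI methods) of 19 antimicrobials against field isolates of P. multocida, M. haemolytica, H. somni (deep nasopharyngeal swabs) and E. coli, Enterococcus spp. (rectal swabs) from weaned dairy heifers. Incubation 16-24 h at 35 C. MIC is the lowest concentration preventing visible growth. Values with <= or > lie at the tested range limits. Trimethoprim-sulfamethoxazole is given as the trimethoprim component of a 1:19 mixture.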

CCCN1C[C@H](C)[C@@H](O)[C@](C)(O)[C@@H](CC)OC(=O)[C@H](C)[C@@H](O[C@H]2C[C@@](C)(OC)[C@@H](O)[C@H](C)O2)[C@H](C)[C@@H](O[C@@H]2O[C@H](C)C[C@H](N(C)C)[C@H]2O)[C@](C)(O)C[C@H]1C [Gamithromycin]
Conditions | minimum inhibitory concentration [µg/mL]
isolate (source animal id): 1 | > 8
isolate (source animal id): 2 | 4 (≈ 5.15 µM)
isolate (source animal id): 3 | 8 (≈ 10.3 µM)
isolate (source animal id): 4 | 8 (≈ 10.3 µM)
isolate (source animal id): 5 | 8 (≈ 10.3 µM)
isolate (source animal id): 6 | 4 (≈ 5.15 µM)
isolate (source animal id): 7 | 4 (≈ 5.15 µM)
isolate (source animal id): 17 | > 8
isolate (source animal id): 18 | 8 (≈ 10.3 µM)
isolate (source animal id): 19 | 8 (≈ 10.3 µM)
isolate (source animal id): 20 | 4 (≈ 5.15 µM)
isolate (source animal id): 21 | 8 (≈ 10.3 µM)
isolate (source animal id): 22 | 8 (≈ 10.3 µM)
isolate (source animal id): 23 | 8 (≈ 10.3 µM)
isolate (source animal id): 24 | 8 (≈ 10.3 µM)
isolate (source animal id): 25 | 8 (≈ 10.3 µM)
isolate (source animal id): 26 | 8 (≈ 10.3 µM)
isolate (source animal id): 27 | 4 (≈ 5.15 µM)
isolate (source animal id): 28 | 4 (≈ 5.15 µM)
isolate (source animal id): 29 | 8 (≈ 10.3 µM)
isolate (source animal id): 30 | 4 (≈ 5.15 µM)
isolate (source animal id): 31 | 4 (≈ 5.15 µM)
isolate (source animal id): 32 | 4 (≈ 5.15 µM)
isolate (source animal id): 33 | 4 (≈ 5.15 µM)
isolate (source animal id): 34 | 4 (≈ 5.15 µM)
isolate (source animal id): 35 | 8 (≈ 10.3 µM)
isolate (source animal id): 36 | 4 (≈ 5.15 µM)
isolate (source animal id): 37 | 4 (≈ 5.15 µM)
isolate (source animal id): 38 | 8 (≈ 10.3 µM)
isolate (source animal id): 39 | 8 (≈ 10.3 µM)
isolate (source animal id): 40 | 4 (≈ 5.15 µM)
isolate (source animal id): 41 | > 8
isolate (source animal id): 42 | 4 (≈ 5.15 µM)
isolate (source animal id): 43 | 4 (≈ 5.15 µM)
isolate (source animal id): 44 | 8 (≈ 10.3 µM)
isolate (source animal id): 45 | 8 (≈ 10.3 µM)
isolate (source animal id): 46 | 4 (≈ 5.15 µM)
isolate (source animal id): 47 | 4 (≈ 5.15 µM)
isolate (source animal id): 48 | 8 (≈ 10.3 µM)
isolate (source animal id): 49 | 4 (≈ 5.15 µM)
isolate (source animal id): 50 | 4 (≈ 5.15 µM)
isolate (source animal id): 51 | 8 (≈ 10.3 µM)
isolate (source animal id): 52 | 4 (≈ 5.15 µM)
isolate (source animal id): 53 | 8 (≈ 10.3 µM)
isolate (source animal id): 54 | 2 (≈ 2.57 µM)
isolate (source animal id): 55 | 8 (≈ 10.3 µM)
isolate (source animal id): 56 | 8 (≈ 10.3 µM)
isolate (source animal id): 57 | > 8
isolate (source animal id): 58 | 8 (≈ 10.3 µM)
isolate (source animal id): 59 | 8 (≈ 10.3 µM)
isolate (source animal id): 60 | 4 (≈ 5.15 µM)
isolate (source animal id): 61 | > 8
isolate (source animal id): 62 | 8 (≈ 10.3 µM)
isolate (source animal id): 63 | 8 (≈ 10.3 µM)
isolate (source animal id): 64 | 8 (≈ 10.3 µM)
isolate (source animal id): 65 | > 8
isolate (source animal id): 66 | > 8
isolate (source animal id): 67 | 4 (≈ 5.15 µM)
isolate (source animal id): 68 | 8 (≈ 10.3 µM)
isolate (source animal id): 69 | 8 (≈ 10.3 µM)
isolate (source animal id): 70 | > 8
isolate (source animal id): 71 | 8 (≈ 10.3 µM)
isolate (source animal id): 72 | 4 (≈ 5.15 µM)
isolate (source animal id): 73 | 8 (≈ 10.3 µM)
isolate (source animal id): 74 | 8 (≈ 10.3 µM)
isolate (source animal id): 75 | 8 (≈ 10.3 µM)
isolate (source animal id): 76 | 8 (≈ 10.3 µM)
isolate (source animal id): 77 | 4 (≈ 5.15 µM)
isolate (source animal id): 78 | 8 (≈ 10.3 µM)
isolate (source animal id): 79 | 8 (≈ 10.3 µM)
isolate (source animal id): 80 | 4 (≈ 5.15 µM)
isolate (source animal id): 81 | 8 (≈ 10.3 µM)
isolate (source animal id): 82 | > 8
isolate (source animal id): 83 | 4 (≈ 5.15 µM)
isolate (source animal id): 84 | 8 (≈ 10.3 µM)
isolate (source animal id): 85 | 8 (≈ 10.3 µM)
isolate (source animal id): 86 | > 8
isolate (source animal id): 87 | 8 (≈ 10.3 µM)
isolate (source animal id): 88 | 8 (≈ 10.3 µM)
isolate (source animal id): 89 | 8 (≈ 10.3 µM)
isolate (source animal id): 90 | > 8
isolate (source animal id): 91 | 8 (≈ 10.3 µM)
isolate (source animal id): 92 | 4 (≈ 5.15 µM)
isolate (source animal id): 93 | 4 (≈ 5.15 µM)
isolate (source animal id): 94 | > 8
isolate (source animal id): 95 | 4 (≈ 5.15 µM)
isolate (source animal id): 96 | 4 (≈ 5.15 µM)
isolate (source animal id): 97 | 4 (≈ 5.15 µM)
isolate (source animal id): 189 | 8 (≈ 10.3 µM)
isolate (source animal id): 190 | 8 (≈ 10.3 µM)
isolate (source animal id): 191 | 8 (≈ 10.3 µM)
isolate (source animal id): 192 | 4 (≈ 5.15 µM)
isolate (source animal id): 193 | 4 (≈ 5.15 µM)
isolate (source animal id): 194 | 8 (≈ 10.3 µM)
isolate (source animal id): 195 | 8 (≈ 10.3 µM)
isolate (source animal id): 196 | 8 (≈ 10.3 µM)
isolate (source animal id): 197 | 8 (≈ 10.3 µM)
isolate (source animal id): 198 | 4 (≈ 5.15 µM)
isolate (source animal id): 199 | 8 (≈ 10.3 µM)
isolate (source animal id): 200 | 8 (≈ 10.3 µM)
isolate (source animal id): 201 | 8 (≈ 10.3 µM)
isolate (source animal id): 202 | 8 (≈ 10.3 µM)
isolate (source animal id): 203 | 8 (≈ 10.3 µM)
isolate (source animal id): 204 | 8 (≈ 10.3 µM)
isolate (source animal id): 205 | > 8
isolate (source animal id): 206 | 8 (≈ 10.3 µM)
isolate (source animal id): 207 | 8 (≈ 10.3 µM)
isolate (source animal id): 208 | 8 (≈ 10.3 µM)
isolate (source animal id): 209 | 8 (≈ 10.3 µM)
isolate (source animal id): 210 | 8 (≈ 10.3 µM)
isolate (source animal id): 211 | 8 (≈ 10.3 µM)
isolate (source animal id): 212 | 4 (≈ 5.15 µM)
isolate (source animal id): 213 | 8 (≈ 10.3 µM)
isolate (source animal id): 214 | 8 (≈ 10.3 µM)
isolate (source animal id): 215 | 4 (≈ 5.15 µM)
isolate (source animal id): 216 | 4 (≈ 5.15 µM)
isolate (source animal id): 217 | 8 (≈ 10.3 µM)
isolate (source animal id): 218 | 4 (≈ 5.15 µM)
isolate (source animal id): 219 | 8 (≈ 10.3 µM)
isolate (source animal id): 220 | 8 (≈ 10.3 µM)
